The target in assay [1] is mutant huntingtin (Htt111Q) (human) (UniProt P42858). Nature of the assay: co-immunoprecipitation from HeLa cell lysate with anti-HMGB or anti-EGFP antibody, blot with CAG53b.
In assay [2] the target is mutant ataxin-1 (AT1-82Q) (human) (UniProt P54253). Described as above.
Assay [3] has as its target mutant huntingtin (Htt111Q) (human) (UniProt P42858). The experiment in a line: GST pull-down from HeLa cell lysate, blot with CAG53b.
For assay [4], the target named is mutant ataxin-1 (AT1-82Q) (human) (UniProt P54253). Described as above.

The chains behind the UniProt entries cited, without tags or fusion partners. Where a name states a change or a piece, a line headed by the entry shows the natural chain unless it says otherwise. A line that says so, or that is headed by a name, gives the form on record, which may keep a tag or linker.
mutant huntingtin (Htt111Q) (P42858, form named): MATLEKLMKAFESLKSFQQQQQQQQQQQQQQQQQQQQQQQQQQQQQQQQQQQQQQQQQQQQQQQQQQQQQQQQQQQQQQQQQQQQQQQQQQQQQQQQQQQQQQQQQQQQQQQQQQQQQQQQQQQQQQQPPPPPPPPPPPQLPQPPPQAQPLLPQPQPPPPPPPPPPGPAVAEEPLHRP
mutant ataxin-1 (AT1-82Q) (P54253, form named): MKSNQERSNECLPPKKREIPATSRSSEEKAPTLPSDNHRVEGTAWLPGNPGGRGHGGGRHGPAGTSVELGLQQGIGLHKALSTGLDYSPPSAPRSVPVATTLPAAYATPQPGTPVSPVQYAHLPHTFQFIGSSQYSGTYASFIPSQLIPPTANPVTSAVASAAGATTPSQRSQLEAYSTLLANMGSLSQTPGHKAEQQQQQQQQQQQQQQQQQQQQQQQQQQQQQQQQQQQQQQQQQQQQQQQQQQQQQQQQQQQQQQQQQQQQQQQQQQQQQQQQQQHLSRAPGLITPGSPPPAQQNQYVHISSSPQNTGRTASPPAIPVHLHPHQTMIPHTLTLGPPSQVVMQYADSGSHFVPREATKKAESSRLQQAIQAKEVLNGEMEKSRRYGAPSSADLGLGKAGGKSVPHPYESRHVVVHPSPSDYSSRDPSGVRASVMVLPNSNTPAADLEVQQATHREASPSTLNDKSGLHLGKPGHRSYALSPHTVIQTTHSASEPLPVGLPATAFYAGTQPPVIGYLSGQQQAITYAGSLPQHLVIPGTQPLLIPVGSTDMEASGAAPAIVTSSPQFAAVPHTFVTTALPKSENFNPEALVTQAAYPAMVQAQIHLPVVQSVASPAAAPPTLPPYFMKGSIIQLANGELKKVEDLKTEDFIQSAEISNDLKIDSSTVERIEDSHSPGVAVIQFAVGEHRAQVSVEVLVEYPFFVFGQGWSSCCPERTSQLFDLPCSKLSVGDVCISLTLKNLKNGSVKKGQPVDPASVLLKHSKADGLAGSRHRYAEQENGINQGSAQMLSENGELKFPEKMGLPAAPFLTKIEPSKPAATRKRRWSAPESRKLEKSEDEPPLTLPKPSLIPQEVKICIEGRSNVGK

These are yes or no findings as the source states them, for the method shown. Binding seen in cells or lysates may run through a third protein. Some results given as binding are weak or reduced against the parent protein; the word gives no strength. Tags and fused reporters may be left off the sequences shown.

B1: HMGB2-EGFP protein (rat HMGB2 expressed from pEGFP-N1-HMGB2) (protein, not shown: large carriers)
chain: MGKGDPNKPRGKMSSYAFFVQTCREEHKKKHPDSSVNFAEFSKKCSERWKTMSAKEKSKFEDLAKSDKARYDREMKNYVPPKGDKKGKKKDPNAPKRPPSAFFLFCSEHRPKIKSEHPGLSIGDTAKKLGEMWSEQSAKDKQPYEQKAAKLKEKYEKDIAAYRAKGKSEVGKKGPGRPTGSKKKNEPEDEEEEEEEEDDEDEEEEDEDEE
Take B1: the binding entry in assay [1] and in assay [2] was “binds” each time.

B2: GST-HMGB2 fusion protein (rat HMGB2 from pGEX-3X-HMGB2) (protein, not shown: a dimerising Fc or GST)
chain: MGKGDPNKPRGKMSSYAFFVQTCREEHKKKHPDSSVNFAEFSKKCSERWKTMSAKEKSKFEDLAKSDKARYDREMKNYVPPKGDKKGKKKDPNAPKRPPSAFFLFCSEHRPKIKSEHPGLSIGDTAKKLGEMWSEQSAKDKQPYEQKAAKLKEKYEKDIAAYRAKGKSEVGKKGPGRPTGSKKKNEPEDEEEEEEEEDDEDEEEEDEDEE
B2: the binding entry in assay [3] and in assay [4] was “binds” each time.

The values above are taken from patent publication US20090280488A1.
